Earlier results in patent US8871800B2, “Statin and omega-3 fatty acids for reduction of Apo-B levels” (GlaxoSmithKline, LLC, priority 2006, dated 2014).
At least one compound was matched to its structure with a doubt left.

What was measured:
[1] = tested on: renal transplant patients with persistent hypercholesterolemia; conditions: diet + 20 mg pravastatin, 8 weeks
[2] = tested on: patients with mixed hyperlipidemia
[3] = tested on: hypercholesterolemic men; conditions: 20 mg/day simvastatin, 12 weeks

CC[C@H](C)C(=O)O[C@H]1C[C@H](O)C=C2C=C[C@H](C)[C@H](CC[C@@H](O)C[C@@H](O)CC(=O)O)[C@H]21 [pravastatin]
Apo-B levels [1]: not significantly reduced
LDL-C levels ([2]; initial 6 weeks monotherapy (40 mg/day pravastatin or 6 g/day fish oil)): significantly reduced
Apo-B levels ([2]; pravastatin treatment 40 mg/day): significantly reduced

CCC(C)(C)C(=O)O[C@H]1C[C@@H](C)C=C2C=C[C@H](C)[C@H](CC[C@@H]3C[C@@H](O)CC(=O)O3)[C@H]21 [simvastatin]
Apo-B levels [3]: significant reductions
